Measurements reported in PubChem BioAssay AID743121 (NCATS, 2013)
The whole screen tested about 26,000 reagents; below is a part drawn at random. 167 of all reagents (0.63%) count as active. 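Calls are per gene from RSA p-values that are not deposited; an individual active-marked siRNA can sensitise only weakly.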 Reagents against one gene are numbered here. Further read-outs or replicates are left out here. No sequences are given here.

Purpose: 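Genes whose silencing strengthens cell killing by camptothecin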 (primary screen)
Cells: MDA-MB-231 cells, a human breast cancer line
Reagent: single siRNA against human genes, 20 nM siRNA (0.8 pmol per well)
Timing: 120 h (drug added 48 h after transfection, read 72 h later)
Conditions: camptothecin 20 nM (about EC30) for 72 h; vehicle 0.1% DMSO in parallel plates
Measured: 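Cell viability by ATP luminescence (CellTiter-Glo) as % of non-targeting siRNA wells, and the log2 ratio of viability without drug over viability with camptothecin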
Scale: log2 vehicle/camptothecin viability: higher = stronger sensitisation to camptothecin; viability with camptothecin: higher = more viable cells
Hit rule: 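Each gene scored by redundant siRNA activity (RSA) over its individual siRNA ratios; a gene is called active at p < 0.001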

gene	reagent no.	log2 vehicle/camptothecin viability	viability with camptothecin (% of control)	outcome
TLR6 (toll like receptor 6)	1	-0.0618	93.7	inactive
TLR6 (toll like receptor 6)	2	-0.341	116	inactive
TLR6 (toll like receptor 6)	3	0.0407	73.7	inactive
PRPSAP2 (phosphoribosyl pyrophosphate synthetase associated protein 2)	1	0.0472	89.5	inactive
PRPSAP2 (phosphoribosyl pyrophosphate synthetase associated protein 2)	2	-0.359	85.6	inactive
PRPSAP2 (phosphoribosyl pyrophosphate synthetase associated protein 2)	3	0.0605	104	inactive
SSTR1 (somatostatin receptor 1)	1	-0.177	68.6	inactive
SSTR1 (somatostatin receptor 1)	2	-0.178	82.3	inactive
SSTR1 (somatostatin receptor 1)	3	-0.144	45.1	inactive
SSTR1 (somatostatin receptor 1)	4	-0.584	74.4	inactive
ATF1 (activating transcription factor 1)	1	0.137	73	inactive
ATF1 (activating transcription factor 1)	2	0.0456	87.2	inactive
ATF1 (activating transcription factor 1)	3	-0.195	77.9	inactive
ATF1 (activating transcription factor 1)	4	-0.00643	82.5	inactive
MGST3 (microsomal glutathione S-transferase 3)	1	-0.301	118	inactive
MGST3 (microsomal glutathione S-transferase 3)	2	0.0877	92.2	inactive
MGST3 (microsomal glutathione S-transferase 3)	3	-0.0375	47.1	inactive
MGST3 (microsomal glutathione S-transferase 3)	4	0.158	107	inactive
KRT8 (keratin 8)	1	-0.411	108	inactive
KRT8 (keratin 8)	2	-0.0194	99.8	inactive
KRT8 (keratin 8)	3	-0.309	113	inactive
ATP1A3 (ATPase Na+/K+ transporting subunit alpha 3)	1	-0.485	30.2	inactive
ATP1A3 (ATPase Na+/K+ transporting subunit alpha 3)	2	0.209	80.1	inactive
ATP1A3 (ATPase Na+/K+ transporting subunit alpha 3)	3	-0.228	108	inactive
UTS2B (urotensin 2B)	1	-0.144	97.6	inactive
UTS2B (urotensin 2B)	2	-0.211	56.9	inactive
UTS2B (urotensin 2B)	3	-0.0973	46.5	inactive
UTS2B (urotensin 2B)	4	-0.0552	102	inactive

Continued (3 carried over from the part before).
gene	reagent no.	log2 vehicle/camptothecin viability	viability with camptothecin (% of control)	outcome
UTS2B (urotensin 2B)	2	-0.211	56.9	inactive
UTS2B (urotensin 2B)	3	-0.0973	46.5	inactive
UTS2B (urotensin 2B)	4	-0.0552	102	inactive
ADCY1 (adenylate cyclase 1)	1	0.0216	76.7	inactive
ADCY1 (adenylate cyclase 1)	2	-0.0918	84.5	inactive
ADCY1 (adenylate cyclase 1)	3	-0.488	65.8	inactive
ADCY1 (adenylate cyclase 1)	4	0.0954	83.8	inactive
ACBD3 (acyl-CoA binding domain containing 3)	1	0.448	55.9	inactive
ACBD3 (acyl-CoA binding domain containing 3)	2	0.013	102	inactive
ACBD3 (acyl-CoA binding domain containing 3)	3	0.123	76.2	inactive
MS4A15 (membrane spanning 4-domains A15)	1	-0.154	100	inactive
MS4A15 (membrane spanning 4-domains A15)	2	0.545	21	inactive
MS4A15 (membrane spanning 4-domains A15)	3	-0.567	92.2	inactive
MS4A15 (membrane spanning 4-domains A15)	4	0.125	52.8	inactive
ZMPSTE24 (zinc metallopeptidase STE24)	1	-0.483	58.8	inactive
ZMPSTE24 (zinc metallopeptidase STE24)	2	0.179	80.3	inactive
ZMPSTE24 (zinc metallopeptidase STE24)	3	0.249	57.9	inactive
ZMPSTE24 (zinc metallopeptidase STE24)	4	-0.159	65.1	inactive
MERTK (MER proto-oncogene, tyrosine kinase)	1	0.00576	74.4	inactive
MERTK (MER proto-oncogene, tyrosine kinase)	2	-0.0667	94.1	inactive
MERTK (MER proto-oncogene, tyrosine kinase)	3	-0.42	111	inactive
MERTK (MER proto-oncogene, tyrosine kinase)	4	0.16	69.8	inactive
CTSZ (cathepsin Z)	1	-0.0426	87.3	inactive
CTSZ (cathepsin Z)	2	-0.314	96.4	inactive
CTSZ (cathepsin Z)	3	-0.358	63.9	inactive
CTSZ (cathepsin Z)	4	0.0859	37.1	inactive
APC (APC regulator of Wnt signaling pathway)	1	0.0919	81.5	inactive
APC (APC regulator of Wnt signaling pathway)	2	-0.372	60.3	inactive
APC (APC regulator of Wnt signaling pathway)	3	-0.338	103	inactive
APC (APC regulator of Wnt signaling pathway)	4	-0.166	62.6	inactive
SNAI1 (snail family transcriptional repressor 1)	1	-0.391	81	inactive
SNAI1 (snail family transcriptional repressor 1)	2	0.177	62.6	inactive
SNAI1 (snail family transcriptional repressor 1)	3	-0.0909	81.1	inactive
CXCL12 (C-X-C motif chemokine ligand 12)	1	-0.137	64.1	inactive
CXCL12 (C-X-C motif chemokine ligand 12)	2	0.0218	69.9	inactive
CXCL12 (C-X-C motif chemokine ligand 12)	3	-0.242	65.9	inactive
USF2 (upstream transcription factor 2, c-fos interacting)	1	-0.82	69.5	inactive
USF2 (upstream transcription factor 2, c-fos interacting)	2	0.0765	96.4	inactive
USF2 (upstream transcription factor 2, c-fos interacting)	3	-0.407	67.9	inactive
ARFIP2 (ARF interacting protein 2)	1	-0.0287	81.9	inactive
ARFIP2 (ARF interacting protein 2)	2	-0.165	87.9	inactive
ARFIP2 (ARF interacting protein 2)	3	0.188	87.9	inactive
ARFIP2 (ARF interacting protein 2)	4	0.128	15.9	inactive
